Reference: PubChem BioAssay AID1259254 (NCATS, 2017)
Shown is an unselected part of about 59,000 reagents tested. About 1,550 of them (2.6%) count as active. 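G2 share is only a proxy for re-replication; each gene was hit by three separate siRNAs, and active genes were retested.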 The raw values are shown without normalisation. A number with no mark means an inactive call. Reagents against one gene are numbered here. Not stated in the record: the amount of reagent.

Aim: 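Gene knock-downs that lead to re-replication, shown by excess G2 DNA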 (primary screen)
System: human HCT116 colorectal cancer cells
Knock-down reagent: single siRNA against human genes
Duration: 3 days
Measurement: 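Imaged Hoechst DNA stain sorts each cell into a cycle phase by DNA amount; per plate, G2 fraction set to 0% for non-targeting and 100% for GMNN siRNA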
Scale: G2 robust z-score and G2 cells, % of GMNN control: higher = more G2 cells, more excess DNA replication; raw share of cells in G2: higher = larger share of cells with G2 DNA content
Call rule: 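An siRNA counts as active if its G2 robust z-score lies at least 5 MADs above the screen median; here such calls match roughly 38% of GMNN control or more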

The opening 3 entries, ahead of the listing:
no.	gene symbol	siRNA no.	G2 robust z-score	G2 cells, % of GMNN control	raw share of cells in G2 (%)
1	GTF3C4 (general transcription factor IIIC subunit 4)	1	-1.01	-4.15	3.46
2	GTF3C4 (general transcription factor IIIC subunit 4)	2	5.61 (active)	42.5	21.7
3	GTF3C4 (general transcription factor IIIC subunit 4)	3	-0.0132	2.87	4.45

The list itself, repeating the preview:
no.	gene symbol	siRNA no.	G2 robust z-score	G2 cells, % of GMNN control	raw share of cells in G2 (%)
1	GTF3C4 (general transcription factor IIIC subunit 4)	1	-1.01	-4.15	3.46
2	GTF3C4 (general transcription factor IIIC subunit 4)	2	5.61 (active)	42.5	21.7
3	GTF3C4 (general transcription factor IIIC subunit 4)	3	-0.0132	2.87	4.45
4	FMC1 (formation of mitochondrial complex V assembly factor 1)	1	2.67	21.7	11.4
5	FMC1 (formation of mitochondrial complex V assembly factor 1)	2	-0.372	0.35	3.08
6	FMC1 (formation of mitochondrial complex V assembly factor 1)	3	-0.081	2.4	3.52
7	TDG (thymine DNA glycosylase)	1	-0.0757	2.43	4.95
8	TDG (thymine DNA glycosylase)	2	-0.904	-3.39	3.39
9	TDG (thymine DNA glycosylase)	3	8.19 (active)	60.6	25.8
10	BAG3 (BAG cochaperone 3)	1	-0.355	0.471	3.68
11	BAG3 (BAG cochaperone 3)	2	0.672	7.69	9.41
12	BAG3 (BAG cochaperone 3)	3	0.125	3.85	4.95
13	BTF3 (basic transcription factor 3)	1	1.62	14.4	9.34
14	BTF3 (basic transcription factor 3)	2	2.3	19.2	11.9
15	BTF3 (basic transcription factor 3)	3	2.62	21.4	12
16	SMG1	1	-0.217	1.44	4.14
17	SMG1	2	-1.55	-7.96	3.11
18	SMG1	3	0.0194	3.1	6.32
19	RUNX2 (RUNX family transcription factor 2)	1	1.67	14.7	9.3
20	RUNX2 (RUNX family transcription factor 2)	2	-1.02	-4.22	2.87
21	RUNX2 (RUNX family transcription factor 2)	3	0.618	7.32	5.76
22	SLC30A1	1	0.341	5.37	6.26
23	SLC30A1	2	-1.07	-4.59	2.96
24	SLC30A1	3	-1.37	-6.69	2.77
25	CHMP3 (charged multivesicular body protein 3)	1	1.7	14.9	8.95
26	CHMP3 (charged multivesicular body protein 3)	2	3.49	27.5	15.9
27	CHMP3 (charged multivesicular body protein 3)	3	0.425	5.96	5.16
28	CBR1 (carbonyl reductase 1)	1	0.981	9.87	8.59
29	CBR1 (carbonyl reductase 1)	2	3.52	27.8	14.3
30	CBR1 (carbonyl reductase 1)	3	-0.546	-0.876	4.42
